Some of the results follow. Hit calls seldom repeat between salt and free forms of one compound.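 Kinases were expressed as nanoluciferase fusions in K562 cells and luminescence was read every 4 h between 2 and 18 h as percent of control, DMSO set to 100% and a positive control to 0%. A time point counts as decreased when the signal drops significantly (2 sigma). The hit call is the authors' own, does not follow from the count of time points alone, and its rule is not shown.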
Legend:
Test in all cases: number of time points (of 5) at which kinase-Nluc abundance scored as decreased, DMSO-normalised (count); higher = more persistent destabilization
Conditions in all cases: K562; 2-18 h
PRKCA = PRKCA (UniProt P17252)
PTK2 = PTK2 (UniProt Q05397)
PTK2B = PTK2B (UniProt Q14289)
RAF1 = RAF1 (UniProt P04049)
[1] = biological target: RAF1_S257L (clone: RAF1_mut) (UniProt P04049)
RET = RET (UniProt P07949)
[2] = biological target: RET_M918T (clone: RET_mut) (UniProt P07949)
RIOK1 = RIOK1 (UniProt Q9BRS2)
RIPK1 = RIPK1 (UniProt Q13546)
RIPK2 = RIPK2 (UniProt O43353)
ROR2 = ROR2 (UniProt Q01974)
RPS6KA1 = RPS6KA1 (UniProt Q15418)
SPHK1 = SPHK1 (UniProt Q9NYA1)
SRC = SRC (UniProt P12931)
STK24 = STK24 (UniProt Q9Y6E0)
STK38 = STK38 (UniProt Q15208)
SYK = SYK (UniProt P43405)
TEC = TEC (UniProt P42680)
TYK2 = TYK2 (UniProt P29597)
ULK3 = ULK3 (UniProt Q6PHR2)

Sequences of proteins named here, by UniProt entry; tags and fusion partners are left off. A change or cut given only in a name is not applied to a line headed by its entry.
UniProt P07949, whole entry, looked up: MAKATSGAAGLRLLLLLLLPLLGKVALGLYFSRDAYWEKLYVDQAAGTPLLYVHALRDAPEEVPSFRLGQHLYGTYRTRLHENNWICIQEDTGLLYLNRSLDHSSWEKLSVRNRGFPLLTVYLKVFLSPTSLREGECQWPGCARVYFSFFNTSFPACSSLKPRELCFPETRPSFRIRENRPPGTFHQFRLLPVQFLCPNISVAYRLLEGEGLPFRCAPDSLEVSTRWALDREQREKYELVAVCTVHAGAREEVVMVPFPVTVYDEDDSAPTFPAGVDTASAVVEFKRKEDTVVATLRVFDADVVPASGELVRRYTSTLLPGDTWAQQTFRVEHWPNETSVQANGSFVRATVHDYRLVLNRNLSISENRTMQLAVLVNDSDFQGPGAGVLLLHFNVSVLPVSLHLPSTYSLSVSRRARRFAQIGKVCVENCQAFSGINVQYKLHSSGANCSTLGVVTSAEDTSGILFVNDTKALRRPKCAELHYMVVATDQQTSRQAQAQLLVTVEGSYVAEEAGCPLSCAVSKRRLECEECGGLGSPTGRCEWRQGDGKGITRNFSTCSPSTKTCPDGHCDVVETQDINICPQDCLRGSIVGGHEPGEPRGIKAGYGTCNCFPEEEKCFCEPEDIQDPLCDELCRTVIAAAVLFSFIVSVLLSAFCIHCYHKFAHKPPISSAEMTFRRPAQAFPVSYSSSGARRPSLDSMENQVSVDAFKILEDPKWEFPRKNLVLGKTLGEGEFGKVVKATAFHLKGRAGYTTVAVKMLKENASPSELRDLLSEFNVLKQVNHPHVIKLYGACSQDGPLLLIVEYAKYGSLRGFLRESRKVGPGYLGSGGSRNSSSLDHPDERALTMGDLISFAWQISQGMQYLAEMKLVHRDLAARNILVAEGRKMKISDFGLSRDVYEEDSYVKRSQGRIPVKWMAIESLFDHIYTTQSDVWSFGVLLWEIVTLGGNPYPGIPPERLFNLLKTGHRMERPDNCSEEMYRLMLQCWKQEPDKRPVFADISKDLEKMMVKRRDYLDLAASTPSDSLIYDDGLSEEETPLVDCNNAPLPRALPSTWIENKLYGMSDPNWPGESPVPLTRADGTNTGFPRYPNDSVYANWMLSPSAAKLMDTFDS
UniProt P07949, whole entry M918T, looked up: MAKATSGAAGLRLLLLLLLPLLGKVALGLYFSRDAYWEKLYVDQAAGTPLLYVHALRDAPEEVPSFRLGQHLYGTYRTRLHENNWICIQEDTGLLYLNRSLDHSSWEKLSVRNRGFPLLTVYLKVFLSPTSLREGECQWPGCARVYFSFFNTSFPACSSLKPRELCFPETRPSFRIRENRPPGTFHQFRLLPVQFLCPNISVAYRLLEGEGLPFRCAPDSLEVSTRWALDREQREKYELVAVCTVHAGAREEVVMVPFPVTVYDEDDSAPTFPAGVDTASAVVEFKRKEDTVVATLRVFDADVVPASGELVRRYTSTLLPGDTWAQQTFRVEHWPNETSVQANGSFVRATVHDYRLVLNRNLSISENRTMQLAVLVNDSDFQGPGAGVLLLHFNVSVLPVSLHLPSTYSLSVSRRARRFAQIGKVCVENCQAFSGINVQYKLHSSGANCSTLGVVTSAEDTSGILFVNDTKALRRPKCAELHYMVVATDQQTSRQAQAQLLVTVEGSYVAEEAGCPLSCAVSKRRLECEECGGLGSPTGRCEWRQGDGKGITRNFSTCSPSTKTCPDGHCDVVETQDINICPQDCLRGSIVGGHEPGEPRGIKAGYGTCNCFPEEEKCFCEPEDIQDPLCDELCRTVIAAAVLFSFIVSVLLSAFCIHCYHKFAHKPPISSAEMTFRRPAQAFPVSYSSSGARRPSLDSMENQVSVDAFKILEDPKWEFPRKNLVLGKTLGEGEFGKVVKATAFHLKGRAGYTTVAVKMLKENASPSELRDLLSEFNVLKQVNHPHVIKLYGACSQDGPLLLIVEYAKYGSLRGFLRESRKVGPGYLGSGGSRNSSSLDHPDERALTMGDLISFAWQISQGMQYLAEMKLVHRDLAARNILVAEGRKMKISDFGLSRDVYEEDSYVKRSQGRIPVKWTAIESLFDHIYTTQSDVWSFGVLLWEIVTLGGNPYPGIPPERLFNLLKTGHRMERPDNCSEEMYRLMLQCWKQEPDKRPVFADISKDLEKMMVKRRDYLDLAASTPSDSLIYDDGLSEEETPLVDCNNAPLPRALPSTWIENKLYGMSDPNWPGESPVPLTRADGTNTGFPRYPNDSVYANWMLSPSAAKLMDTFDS
UniProt Q9BRS2: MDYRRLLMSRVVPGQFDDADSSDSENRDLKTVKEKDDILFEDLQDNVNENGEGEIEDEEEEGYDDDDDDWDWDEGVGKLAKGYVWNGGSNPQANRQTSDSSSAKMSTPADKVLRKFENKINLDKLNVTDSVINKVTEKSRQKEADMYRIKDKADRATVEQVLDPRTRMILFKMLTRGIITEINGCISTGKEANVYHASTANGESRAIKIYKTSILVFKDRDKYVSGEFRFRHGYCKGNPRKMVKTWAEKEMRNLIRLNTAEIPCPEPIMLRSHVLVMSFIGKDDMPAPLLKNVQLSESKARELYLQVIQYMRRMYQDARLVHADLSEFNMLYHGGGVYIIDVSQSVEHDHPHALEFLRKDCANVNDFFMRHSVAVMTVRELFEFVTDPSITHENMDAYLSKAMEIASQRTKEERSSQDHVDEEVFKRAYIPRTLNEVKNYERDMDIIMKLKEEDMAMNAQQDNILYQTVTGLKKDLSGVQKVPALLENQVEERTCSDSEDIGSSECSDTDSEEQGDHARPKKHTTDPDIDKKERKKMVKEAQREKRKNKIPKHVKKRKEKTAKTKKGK
UniProt Q13546: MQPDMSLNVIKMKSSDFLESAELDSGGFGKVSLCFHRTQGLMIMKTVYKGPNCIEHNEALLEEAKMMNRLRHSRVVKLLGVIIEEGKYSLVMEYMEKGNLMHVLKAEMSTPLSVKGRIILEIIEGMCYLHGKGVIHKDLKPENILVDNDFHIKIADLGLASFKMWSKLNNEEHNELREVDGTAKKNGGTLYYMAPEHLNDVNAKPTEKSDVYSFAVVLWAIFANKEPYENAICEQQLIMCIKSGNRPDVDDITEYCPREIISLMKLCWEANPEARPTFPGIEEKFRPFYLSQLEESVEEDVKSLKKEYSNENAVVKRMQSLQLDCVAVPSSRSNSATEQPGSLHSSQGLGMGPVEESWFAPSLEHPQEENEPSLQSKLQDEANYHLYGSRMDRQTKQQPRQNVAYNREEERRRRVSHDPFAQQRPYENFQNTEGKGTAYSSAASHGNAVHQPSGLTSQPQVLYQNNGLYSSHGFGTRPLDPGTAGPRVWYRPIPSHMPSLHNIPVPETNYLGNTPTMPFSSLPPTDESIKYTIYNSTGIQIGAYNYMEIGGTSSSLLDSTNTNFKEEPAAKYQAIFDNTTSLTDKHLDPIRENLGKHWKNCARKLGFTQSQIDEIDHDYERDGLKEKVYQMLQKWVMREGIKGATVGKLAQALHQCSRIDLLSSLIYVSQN
UniProt Q9NYA1, whole entry: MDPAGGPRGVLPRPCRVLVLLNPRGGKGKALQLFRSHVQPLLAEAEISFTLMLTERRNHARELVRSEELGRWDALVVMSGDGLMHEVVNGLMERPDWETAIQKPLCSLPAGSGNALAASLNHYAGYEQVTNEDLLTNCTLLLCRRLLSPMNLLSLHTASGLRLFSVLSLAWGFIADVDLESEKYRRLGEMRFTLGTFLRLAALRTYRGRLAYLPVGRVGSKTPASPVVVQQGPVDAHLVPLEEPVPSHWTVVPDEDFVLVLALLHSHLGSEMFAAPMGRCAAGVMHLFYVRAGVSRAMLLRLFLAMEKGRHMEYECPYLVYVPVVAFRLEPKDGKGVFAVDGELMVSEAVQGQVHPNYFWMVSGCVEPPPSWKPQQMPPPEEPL
UniProt P42680: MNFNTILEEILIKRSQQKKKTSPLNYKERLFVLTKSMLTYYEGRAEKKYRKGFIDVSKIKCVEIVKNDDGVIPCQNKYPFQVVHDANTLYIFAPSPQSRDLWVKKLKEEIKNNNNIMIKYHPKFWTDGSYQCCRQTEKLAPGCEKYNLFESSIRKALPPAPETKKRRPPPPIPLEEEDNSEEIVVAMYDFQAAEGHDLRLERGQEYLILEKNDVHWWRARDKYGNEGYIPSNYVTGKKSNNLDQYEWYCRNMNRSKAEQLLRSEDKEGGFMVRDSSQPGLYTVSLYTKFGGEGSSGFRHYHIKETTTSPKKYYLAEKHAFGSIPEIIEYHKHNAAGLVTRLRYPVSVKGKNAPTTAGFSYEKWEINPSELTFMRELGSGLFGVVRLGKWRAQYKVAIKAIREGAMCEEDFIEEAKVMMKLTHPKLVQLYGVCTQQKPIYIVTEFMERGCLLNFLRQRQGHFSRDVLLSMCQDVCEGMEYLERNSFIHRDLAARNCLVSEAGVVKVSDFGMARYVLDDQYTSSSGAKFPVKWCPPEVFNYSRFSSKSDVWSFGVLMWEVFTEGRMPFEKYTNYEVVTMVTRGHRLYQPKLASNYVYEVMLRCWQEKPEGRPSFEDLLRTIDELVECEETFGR
UniProt P29597: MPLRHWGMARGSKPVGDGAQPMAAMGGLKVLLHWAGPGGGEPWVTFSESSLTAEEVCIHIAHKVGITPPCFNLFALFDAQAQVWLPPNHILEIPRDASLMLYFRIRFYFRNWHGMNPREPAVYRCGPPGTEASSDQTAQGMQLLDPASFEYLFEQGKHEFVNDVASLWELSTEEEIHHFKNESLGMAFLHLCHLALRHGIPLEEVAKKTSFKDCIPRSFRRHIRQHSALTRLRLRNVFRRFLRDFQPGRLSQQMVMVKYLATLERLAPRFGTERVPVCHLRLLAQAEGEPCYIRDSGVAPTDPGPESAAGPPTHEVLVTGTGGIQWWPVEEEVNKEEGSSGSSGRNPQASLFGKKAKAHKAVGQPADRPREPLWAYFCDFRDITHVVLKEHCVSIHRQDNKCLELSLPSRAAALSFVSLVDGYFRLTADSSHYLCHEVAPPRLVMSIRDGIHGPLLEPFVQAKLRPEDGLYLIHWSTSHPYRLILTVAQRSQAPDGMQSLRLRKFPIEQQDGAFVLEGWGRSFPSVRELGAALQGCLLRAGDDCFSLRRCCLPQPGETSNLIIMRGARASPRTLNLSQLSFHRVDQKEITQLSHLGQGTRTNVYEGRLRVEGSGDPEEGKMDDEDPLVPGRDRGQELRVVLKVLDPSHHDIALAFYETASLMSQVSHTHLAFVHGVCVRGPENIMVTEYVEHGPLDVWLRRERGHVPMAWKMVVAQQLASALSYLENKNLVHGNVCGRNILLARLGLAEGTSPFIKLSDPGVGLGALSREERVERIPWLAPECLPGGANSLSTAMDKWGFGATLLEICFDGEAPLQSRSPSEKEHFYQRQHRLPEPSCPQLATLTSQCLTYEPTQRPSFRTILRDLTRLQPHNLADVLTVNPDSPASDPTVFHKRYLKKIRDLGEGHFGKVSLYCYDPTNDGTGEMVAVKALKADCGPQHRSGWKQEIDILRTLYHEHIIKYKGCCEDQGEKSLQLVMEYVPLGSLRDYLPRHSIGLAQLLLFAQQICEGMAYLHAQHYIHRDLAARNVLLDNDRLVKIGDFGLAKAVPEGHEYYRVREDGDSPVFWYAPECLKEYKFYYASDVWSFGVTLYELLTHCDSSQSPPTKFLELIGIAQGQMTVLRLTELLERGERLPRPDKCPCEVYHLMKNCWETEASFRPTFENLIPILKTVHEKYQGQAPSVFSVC

Measured: number of time points

CC(=O)Nc1nc(C)c(-c2cc(C)c3c(c2)CN([C@@H](C)C2CC2)C3=O)s1 (10 µM)
0: all assays above

CN(C)c1ccc(/C=C2\C(=O)Nc3ccccc32)c2ccccc12 (10 µM)
1: PTK2 | SRC | SYK
2: RET | SPHK1
0: all other assays above

COc1cccc(-c2cc(=O)c3ccccc3o2)c1N (10 µM)
0: all assays above

C[C@@H](NC(=O)c1ncnc(N)c1Cl)c1ncc(C(=O)Nc2cc(C(F)(F)F)c(Cl)cn2)s1 (2.5 µM)
4: RIPK2
1: STK38
2: PTK2 | RET | TEC
3: RIOK1 | RIPK1 | SPHK1 | TYK2 | ULK3
not listed: RAF1 | [1]
0: all other assays above

CS[C@@]1(C(=O)Nc2ccc3[nH]nc(-c4ccc(OC(C)C)nc4)c3c2)CCN(CC(=O)N2CC=C(c3ccc(-c4ncn(C)n4)cc3)CC2)C1 (2.5 µM)
0: all assays above

CCNC(=O)Nc1ccc(-c2nc3c(c(N4CCOC[C@@H]4C)n2)CCN(C2COC2)C3)cc1 (2.5 µM)
2: PTK2
1: ULK3
3: RIPK1
not listed: SRC | TYK2
0: all other assays above

COc1c(O)cc(O)c2c(=O)cc(-c3ccccc3)oc12 [Wogonin] (10 µM)
0: all assays above

Cc1cnc(Nc2ccc(F)cc2Cl)nc1-c1c[nH]c(C(=O)N[C@H](CO)c2cccc(Cl)c2)c1 (10 µM)
not listed: SYK
0: all other assays above

CCOc1cc(=O)[nH]cc1-c1ccc(CC(=O)Nc2cc(C(C)(C)C(F)(F)F)on2)c(F)c1 (10 µM)
not listed: RET | [2]
0: all other assays above

COc1ccc(CN2CCC(c3ccc4nc(C(=O)N5CCN(Cc6ccc(C(F)(F)F)cc6)CC5)[nH]c4c3)CC2)cn1 (2.5 µM)
2: [1] | TEC
1: [2]
0: all other assays above

N#Cc1cnc(Nc2cc(NC[C@H]3CNCCO3)c(C(F)(F)F)cn2)cn1 (10 µM)
2: RAF1 | RET | [2]
1: PTK2 | [1] | SRC | ULK3
0: all other assays above

CN(C)c1cc[n+](Cc2ccc(OCCOc3ccc(C[n+]4ccc(N(C)C)cc4)cc3)cc2)cc1 (10 µM)
0: all assays above

O=C1Cc2ccccc2N1 [Oxindole] (10 µM)
0: all assays above

CC1(C)CN(C(=O)c2ccc(-c3cccc4nc(NC(=O)C5CC5)nn34)cc2)C1 [Solcitinib] (10 µM)
not listed: STK38
0: all other assays above

CCOC(=O)c1c(C)[nH]c(C=C2C(=O)Nc3ccccc32)c1C (10 µM)
not listed: STK38
0: all other assays above

C[C@@H]1CN(Cc2ccc(F)cc2)[C@@H](C)CN1C(=O)c1cc2c(C(=O)C(=O)N(C)C)cn(C)c2cc1Cl [Talmapimod] (10 µM)
0: all assays above

O=C(CCl)c1c[nH]c2ccccc12 (2.5 µM)
0: all assays above

COc1cc2ncnc(Nc3cc(Br)c(O)c(Br)c3)c2cc1OC (2.5 µM)
not listed: RIPK1
0: all other assays above

Cc1ccc(Nc2cc(N[C@@H]3CCCC[C@@H]3N)nnc2C(N)=O)nc1C (2 µM)
not listed: SYK
0: all other assays above

Fc1ccc(Cl)cc1-c1nc(Nc2ccncc2)c2nccnc2n1 (10 µM)
not listed: PTK2B
0: all other assays above

CCc1c(C(=O)NNC(=O)[C@H](O)c2cc(F)cc(F)c2)ccc(O)c1C (10 µM)
0: all assays above

COc1ccc2nc3ccc(OC)cc3c(SCCCN)c2c1 (10 µM)
2: RET | RIOK1 | ULK3
3: RIPK1
1: SYK
4: [1] | RIPK2
0: all other assays above

COc1cc2nccc(Nc3cccc(Oc4ccccc4)c3)c2cc1OC (2.5 µM)
not listed: STK38
0: all other assays above

Cc1nc(Nc2cnn(C3CCNCC3)c2)nc2c1N(C)C(=O)c1cc3ccccc3cc1N2C (2.5 µM)
0: all assays above

CS(=O)(=O)c1cccc(CNc2nc(Nc3ccc4c(c3)CCC(=O)N4)ncc2C(F)(F)F)c1 (10 µM)
not listed: PTK2
0: all other assays above

Reference: the supplement of paper PMC12823440, “Inhibitors supercharge kinase turnover through native proteolytic circuits” (Nature, 2025)
